In the odorant receptor screen of Mainland et al. (2015):
Where “and” joins values, the source holds several entries; their conditions need not be identical. Equal entries are not always repeated. Some of the results follow. Each value is one well over the wells without odorant, computed here; the data are noisy.

Experiments:
Experiment in all cases: odorant receptor activation (CRE luciferase / Renilla) (fold of no-odor wells); higher = more activation
Conditions in all cases: 100 µM
[1] = tested on: OR1N2 W23R/V230G/T287M clone 1105
[2] = tested on: OR1N2 W37R/V244G/T301M clone 1350
OR1N2 clone 1505 = tested on: OR1N2 clone 1505
[3] = tested on: OR1Q1 Q24R/I163M clone 1103
OR1S1 clone 1455 = tested on: OR1S1 clone 1455
OR1S2 I46T clone 1137 = tested on: OR1S2 I46T clone 1137
OR2A1 clone 1078 = tested on: OR2A1 clone 1078
OR2A12 clone 1085 = tested on: OR2A12 clone 1085
OR2A14 Indel clone 1540 = tested on: OR2A14 Indel clone 1540
OR2A14 clone 1083 = tested on: OR2A14 clone 1083

Row | Structure (SMILES) | odorant receptor activation [1] | odorant receptor activation [2] | odorant receptor activation (OR1N2 clone 1505) | odorant receptor activation [3] | odorant receptor activation (OR1S1 clone 1455) | odorant receptor activation (OR1S2 I46T clone 1137) | odorant receptor activation (OR2A1 clone 1078) | odorant receptor activation (OR2A12 clone 1085) | odorant receptor activation (OR2A14 Indel clone 1540) | odorant receptor activation (OR2A14 clone 1083)
1 | CC12CCC(CC1)C(C)(C)O2 [cineole] | 0.848 | 1.02 | 1.01 | 1.15 | 1.18 | 0.807 | 0.902 | 1.04 | 1.19 | 0.832
2 | CC(C)CCC(=O)O [4-methylvaleric acid] | 2.66 | 0.974 | 0.814 | 11.4 | 0.857 | 0.825 | 2.65 | 1.24 | 1.09 | 1.72
3 | CC1CCC(C(C)C)C(O)C1 (single isomer, unassigned; (+)) [(+)-menthol] | 3.67 | 1.24 | 1.15 | 18.3 | 0.772 | 1.38 | 4 | 18.4 | 0.883 | 3.33
4 | CCCCCC(=O)O [caproic acid] | 1.26 | 0.893 | 1 | 1.18 | 1.14 | 1.07 | 1.01 | 1.34 | 0.954 | 1.09
5 | CC1CCC(C(C)C)C(O)C1 (single isomer, unassigned; (-)) [(-)-menthol] | 4.42 | 1.01 | 4.25 | 18.4 | 1.11 | 1.12 | 4.36 | 2.24 | 4.25 | 2.49
6 | CC(=O)OC1CC2CCC1(C)C2(C)C (stereo not given) [isobornyl acetate] | 1.9 | 1.13 and 0.804 | 0.779 and 1.11 | 0.886 | 0.572 | 1.09 | 0.778 | 1.69 | 1.2 and 0.93 | 3.36
7 | C=CCc1ccc(OC(C)=O)c(OC)c1 [eugenol acetate] | 1.82 | 2.03 | 1.64 | 1.9 | 2 | 2 | 1.27 | 1.82 | 1.66 | 1.76
8 | O=C1CCCCCCCCCCCCCCO1 [pentadecalactone] | 0.936 | 0.542 | 0.997 | 1.26 | 1.05 | 1.08 | 1.07 | 0.75 | 0.82 | 0.982
9 | CCCCCCCCOC(C)=O [octyl acetate] | 0.995 | 1.18 | 0.929 | 1.13 | 0.867 | 1.4 | 1.23 | 1.22 | 0.978 | 1.02
10 | c1ccc(Oc2ccccc2)cc1 [diphenyl ether] | 0.886 | 1.02 | 1.19 | 1.21 | 0.794 | 1.04 | 0.566 | 0.881 | 1.11 | 1
11 | C=C(C)C1CC=CCC1 (stereo not given) [r-limonene] | 1.33 and 2.34 | 0.554 and 0.94 and 0.795 | 1.15 and 0.846 and 0.868 | 1.44 and 0.905 | 1.49 | 1.4 and 0.478 | 1.2 and 1.83 | 0.98 and 1.84 | 0.991 | 1.24 and 1.37
12 | CCCCCCCCCCC=O [undecanal] | 1.17 | 0.647 | 1.18 | 1.33 | 1.24 | 1.2 | 1.02 | 1.03 | 0.824 | 1.15
13 | CCC1(O)C2(C)CCC(C2)C1(C)C (stereo not given) [2-ethylfenchol] | 4.33 | 1.29 | 1.4 | 31.3 | 0.874 | 1.07 | 4.59 | 2.57 | 1.14 | 3.82
14 | c1cnccn1 [pyrazine] | 1.17 | 0.482 | 1.09 | 1.3 | 0.939 | 1.05 | 1.07 | 0.864 | 0.769 | 1.23
15 | CCCCCCCCCC=O [decyl aldehyde] | 1.36 | 1.26 | 1.17 | 1.25 | 0.734 | 1.35 | 0.925 | 1.11 | 1.53 | 1.09
16 | CC(=O)C(C)=O [diacetyl] | 0.958 | 1.23 | 1.17 | 0.999 | 0.859 | 1.14 | 0.782 | 0.969 | 1.31 | 0.994
17 | CC(=O)OCC=C(C)CCC=C(C)C [geranyl acetate] | 2.14 | 1.47 and 1.35 | 0.939 and 1.31 | 1.7 | 1.12 | 1.34 | 1.09 | 5.82 | 0.975 and 1.95 | 4.04
18 | C=CCc1ccc(OC)c(OC)c1 [eugenol methyl ether] | 1.44 | 1.5 | 1.3 | 1.66 | 0.738 | 1.61 | 1.17 | 1.4 | 1.6 | 1.49
19 | CCCCO [1-butanol] | 4.67 | 1.5 | 1.17 | 14.5 | 0.782 | 1.21 | 5.32 | 2.67 | 1.26 | 3.1
20 | CCCCCCCOC(C)=O [heptyl acetate] | 1.29 | 1.29 and 0.93 | 0.803 and 1.34 | 1.07 | 0.834 | 0.819 | 0.842 | 0.702 | 1.09 and 1.25 | 0.477
21 | O=CCc1ccccc1 [phenyl acetaldehyde] | 1.31 | 0.847 | 1.42 | 1.42 | 1.15 | 1.59 | 1.02 | 0.852 | 1.17 | 1.35
22 | COc1ccccc1O [guaiacol] | 2.1 | 1.07 and 0.85 | 0.752 and 1.06 | 1.45 | 0.751 | 1.16 | 0.962 | 1.25 | 0.959 and 1.05 | 0.693
23 | C=CC(C)(O)CCC=C(C)C (stereo not given) [linalool] | 1.14 | 0.736 | 1.02 | 1.27 | 0.616 | 1.35 | 1.24 | 1.42 | 1.13 | 1.14
24 | CC(=O)OC(C)(C)C1CC=C(C)CC1 (stereo not given) [terpinyl acetate] | 1.59 | 0.538 | 1.15 | 1.72 | 0.953 | 1.75 | 1.29 | 1.29 | 0.979 | 1.84
25 | CC(C)CC(=O)O [isovaleric acid] | 1.07 | 0.811 | 1.01 | 1.09 | 0.732 | 1.65 | 1.3 | 1.25 | 0.746 | 1.02
26 | C=CCSCC=C [diallyl sulfide] | 0.957 | 1.13 | 1.21 | 1.16 | 0.766 | 1.23 | 0.707 | 1 | 1.33 | 1.15
27 | COC(=O)c1ccccc1O [methyl salicylate] | 1.19 | 0.806 | 1.01 | 1.07 | 0.996 | 1.06 | 1.25 | 1.26 | 0.841 | 0.951

Some of the entries above, set out differently:
Row,Structure (SMILES),odorant receptor activation [1],odorant receptor activation [2],odorant receptor activation (OR1N2 clone 1505),odorant receptor activation [3],odorant receptor activation (OR1S1 clone 1455),odorant receptor activation (OR1S2 I46T clone 1137),odorant receptor activation (OR2A1 clone 1078),odorant receptor activation (OR2A12 clone 1085),odorant receptor activation (OR2A14 Indel clone 1540),odorant receptor activation (OR2A14 clone 1083)
18,C=CCc1ccc(OC)c(OC)c1 [eugenol methyl ether],1.44,1.5,1.3,1.66,0.738,1.61,1.17,1.4,1.6,1.49
19,CCCCO [1-butanol],4.67,1.5,1.17,14.5,0.782,1.21,5.32,2.67,1.26,3.1
